Data source: PubChem BioAssay AID720505 (Drosophila RNAi Screening Center, 2013)

- Purpose: 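Fly regulators or components of the CRAC channel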 (primary screen)
- Cells: Drosophila S2R+ cells
- Reagents: long dsRNA against Drosophila genes
- Challenge: thapsigargin (2 µM) in calcium-free buffer to empty internal stores, then 2 mM calcium added back
- Measurement: 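Fluo-4 signal in 384-well plates read on a FLIPR after thapsigargin (2 µM, calcium-free) store depletion and 2 mM calcium add-back; unnormalised mean endpoint per well; screen run twice, selected wells retested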
- Scale: calcium signal: higher = more calcium entry after store depletion
- Rule for the call: 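Knock-downs counted as hits when calcium entry dropped relative to STIM1 positive and Rho1 negative controls present on each plate; roughly 1500 genes called, with reductions of differing size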
- Meaning of the calls: active = called as lowering calcium entry; inactive = not called
The deposit covers about 20,000 reagents; shown is an unselected part of those with a known target gene and a result. Of all reagents, about 2,100 (10%) are marked active. 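Raw plate signals without normalisation; calls rest on control-based scores that were not deposited; replicate 2 separates called from uncalled poorly.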 Entries without a mark were called inactive. Names joined by + are all predicted targets of the reagent. No sequences are given here. Not given: the amount of reagent, the time to read-out.

What did the screen give for Exo84 (Exocyst 84) [DRSC15965]?
calcium signal, replicate 1: 234; calcium signal, replicate 2: 143

With CG31827 + CG18478 [DRSC01958], what does the deposit list?
calcium signal, replicate 1: 110; calcium signal, replicate 2: 95.3

With CG17350 [DRSC02611], what was measured?
calcium signal, replicate 1: 180; calcium signal, replicate 2: 102

What did the screen give for CG8888 [DRSC07294]?
calcium signal, replicate 1: 220; calcium signal, replicate 2: 127

With CG8888 [DRSC07295], how do the results read?
calcium signal, replicate 1: 110; calcium signal, replicate 2: 133

How did the screen score Dfd (Deformed) [DRSC12593]?
calcium signal, replicate 1: 94.8; calcium signal, replicate 2: 154

What did the screen give for CG14882 [DRSC15006]?
calcium signal, replicate 1: 129; calcium signal, replicate 2: 252

What is on record for Tsp47F (Tetraspanin 47F) [DRSC07325]?
calcium signal, replicate 1: 108; calcium signal, replicate 2: 132

For CG33270 [DRSC10584], what does the deposit list?
calcium signal, replicate 1: 103; calcium signal, replicate 2: 89

What did the screen give for bdg (bedraggled) [DRSC07136]?
calcium signal, replicate 1: 86.7; calcium signal, replicate 2: 91.6

What did the screen give for nSyb (neuronal Synaptobrevin) [DRSC08727]?
calcium signal, replicate 1: 125; calcium signal, replicate 2: 136

What is on record for nSyb (neuronal Synaptobrevin) [DRSC22961]?
calcium signal, replicate 1: 115; calcium signal, replicate 2: 128

Which result is listed for Spn77Bb + Spn77Bc [DRSC10689]?
calcium signal, replicate 1: 74.4; calcium signal, replicate 2: 172

For Spn77Bb + Spn77Bc [DRSC11793], what does the deposit list?
calcium signal, replicate 1: 85; calcium signal, replicate 2: 186

Which result is listed for Brms1 (BRMS1 transcriptional repressor) [DRSC19896]?
calcium signal, replicate 1: 95.4; calcium signal, replicate 2: 86

Which result is listed for CG14113 [DRSC10116]?
calcium signal, replicate 1: 81.4; calcium signal, replicate 2: 88.6

What did the screen give for CG33476 [DRSC22888]?
calcium signal, replicate 1: 114; calcium signal, replicate 2: 159

What is on record for Fnta (Farnesyl transferase alpha subunit) [DRSC00557]?
calcium signal, replicate 1: 102; calcium signal, replicate 2: 162

Part of the list above, reduced to “calcium signal, replicate 1”:
CG8888 [DRSC07294] = 220
CG8888 [DRSC07295] = 110
Dfd (Deformed) [DRSC12593] = 94.8
CG14882 [DRSC15006] = 129

The list goes on.
For Prosbeta4R1 (Proteasome beta4 subunit-related 1) [DRSC00502], how do the results read?
calcium signal, replicate 1: 159; calcium signal, replicate 2: 168

What did the screen give for Gyf (Gigyf) [DRSC17202]?
calcium signal, replicate 1: 114; calcium signal, replicate 2: 132

How did the screen score CG14787 [DRSC18606]?
calcium signal, replicate 1: 109; calcium signal, replicate 2: 105

With Cp36 (Chorion protein 36) [DRSC18452], what was measured?
calcium signal, replicate 1: 242; calcium signal, replicate 2: 97.5

For M6 [DRSC11869], what does the deposit list?
calcium signal, replicate 1: 111; calcium signal, replicate 2: 195

With CG5866 [DRSC15900], how do the results read?
calcium signal, replicate 1: 110; calcium signal, replicate 2: 127

Which result is listed for CG9933 [DRSC03276]?
calcium signal, replicate 1: 108; calcium signal, replicate 2: 97.3

What is on record for RpS13 (Ribosomal protein S13) [DRSC03419]?
calcium signal, replicate 1: 104; calcium signal, replicate 2: 211

How did the screen score CG7573 [DRSC10884]?
calcium signal, replicate 1: 81.1; calcium signal, replicate 2: 122

With CG8908 [DRSC07297], what was measured?
calcium signal, replicate 1: 171; calcium signal, replicate 2: 132
